This is an account of results in publication PMC8131606.

Amino acid sequences for entries named in this document (tags omitted). Residues count along the entry.
UniProt P31421, residues 19-872: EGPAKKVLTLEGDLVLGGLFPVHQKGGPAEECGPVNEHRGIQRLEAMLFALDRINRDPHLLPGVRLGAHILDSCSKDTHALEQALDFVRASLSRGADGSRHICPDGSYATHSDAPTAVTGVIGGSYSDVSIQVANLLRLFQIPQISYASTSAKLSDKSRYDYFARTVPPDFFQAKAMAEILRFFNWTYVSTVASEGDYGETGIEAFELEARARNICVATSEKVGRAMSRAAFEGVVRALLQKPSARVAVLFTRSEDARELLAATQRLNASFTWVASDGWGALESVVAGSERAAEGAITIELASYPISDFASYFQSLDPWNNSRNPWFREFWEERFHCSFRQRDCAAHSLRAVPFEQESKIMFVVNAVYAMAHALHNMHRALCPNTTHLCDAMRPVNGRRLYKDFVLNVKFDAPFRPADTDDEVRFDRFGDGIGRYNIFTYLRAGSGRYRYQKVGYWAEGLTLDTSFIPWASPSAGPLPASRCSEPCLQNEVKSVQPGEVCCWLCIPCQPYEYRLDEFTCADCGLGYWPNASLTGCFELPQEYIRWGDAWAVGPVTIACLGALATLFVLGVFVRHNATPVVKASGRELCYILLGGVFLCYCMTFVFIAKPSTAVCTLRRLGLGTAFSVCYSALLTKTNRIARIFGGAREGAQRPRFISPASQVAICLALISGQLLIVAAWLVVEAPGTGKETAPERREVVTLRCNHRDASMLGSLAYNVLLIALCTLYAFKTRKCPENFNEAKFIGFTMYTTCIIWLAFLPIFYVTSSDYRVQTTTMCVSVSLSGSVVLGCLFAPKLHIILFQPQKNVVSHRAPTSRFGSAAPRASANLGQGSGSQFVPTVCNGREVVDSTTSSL

Results are given in words; binding and its absence hold for the method and conditions named. Binding seen in cells or lysates may run through a third protein. Some entries that bind do so weakly or less than the wild type.

The test deals with HA-SNAP-tagged metabotropic glutamate receptor 2 (UniProt P31421). Description: FRET or BRET; N-terminal HA-SNAP constructs on HEK293T cells, surface population labelled with membrane-impermeant SBG-JF549 and SBG-JF646 (1:3); donor recovery after acceptor bleaching.

As to “HA-SNAP-tagged metabotropic glutamate receptor 2 (from UniProt P31421 19-872)”, the binding entry is reported as “binds”.
